# Results: patent US8138158B2, “Compositions and methods for therapy for diseases characterized by defective chloride transport” (Children's Hospital & Research Center at Oakland, priority 1997, dated 2012)
# Amino acid sequences for entries named in this document (tags omitted). Chains listed by the source or under a name are the forms on record and can include a tag or linker.
# UniProt P13569, whole entry G551D: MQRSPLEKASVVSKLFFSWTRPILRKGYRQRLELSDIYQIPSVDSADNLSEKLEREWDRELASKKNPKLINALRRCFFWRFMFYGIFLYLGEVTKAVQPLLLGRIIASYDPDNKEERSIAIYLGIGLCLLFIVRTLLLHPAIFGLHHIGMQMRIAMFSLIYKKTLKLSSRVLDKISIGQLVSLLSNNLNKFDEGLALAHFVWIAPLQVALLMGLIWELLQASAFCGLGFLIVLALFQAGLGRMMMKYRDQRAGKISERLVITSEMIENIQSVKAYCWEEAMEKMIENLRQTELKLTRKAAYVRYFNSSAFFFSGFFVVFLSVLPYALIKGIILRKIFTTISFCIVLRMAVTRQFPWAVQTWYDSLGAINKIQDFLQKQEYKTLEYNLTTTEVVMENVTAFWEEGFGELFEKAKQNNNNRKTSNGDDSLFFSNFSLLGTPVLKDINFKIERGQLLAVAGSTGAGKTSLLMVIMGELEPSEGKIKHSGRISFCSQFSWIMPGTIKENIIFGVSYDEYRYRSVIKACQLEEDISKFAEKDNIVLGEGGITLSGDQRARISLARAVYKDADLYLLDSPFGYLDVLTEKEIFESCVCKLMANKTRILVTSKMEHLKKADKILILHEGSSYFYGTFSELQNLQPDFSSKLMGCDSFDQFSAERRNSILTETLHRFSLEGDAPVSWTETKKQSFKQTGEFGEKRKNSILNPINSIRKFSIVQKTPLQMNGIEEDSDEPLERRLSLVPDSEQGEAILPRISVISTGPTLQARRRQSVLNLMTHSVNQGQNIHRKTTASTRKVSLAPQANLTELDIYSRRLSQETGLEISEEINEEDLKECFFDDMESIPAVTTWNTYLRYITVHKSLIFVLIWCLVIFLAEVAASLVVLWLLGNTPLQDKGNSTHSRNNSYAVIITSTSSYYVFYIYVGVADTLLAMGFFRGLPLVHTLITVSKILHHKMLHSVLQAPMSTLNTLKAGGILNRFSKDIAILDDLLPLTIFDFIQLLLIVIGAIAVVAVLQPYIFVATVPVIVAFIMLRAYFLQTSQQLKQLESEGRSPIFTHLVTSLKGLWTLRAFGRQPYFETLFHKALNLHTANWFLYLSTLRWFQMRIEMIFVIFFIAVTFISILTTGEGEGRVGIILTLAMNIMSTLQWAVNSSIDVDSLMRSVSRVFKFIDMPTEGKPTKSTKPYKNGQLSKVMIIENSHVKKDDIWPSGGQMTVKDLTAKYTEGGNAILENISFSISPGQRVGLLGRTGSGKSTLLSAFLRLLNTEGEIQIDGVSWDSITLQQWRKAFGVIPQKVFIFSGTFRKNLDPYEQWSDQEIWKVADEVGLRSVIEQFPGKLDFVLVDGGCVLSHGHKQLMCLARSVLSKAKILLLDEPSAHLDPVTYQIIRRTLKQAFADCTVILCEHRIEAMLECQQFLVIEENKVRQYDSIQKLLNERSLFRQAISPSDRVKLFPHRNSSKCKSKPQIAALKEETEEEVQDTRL
# UniProt P13569, with tags, fused parts or gaps DEL508-508: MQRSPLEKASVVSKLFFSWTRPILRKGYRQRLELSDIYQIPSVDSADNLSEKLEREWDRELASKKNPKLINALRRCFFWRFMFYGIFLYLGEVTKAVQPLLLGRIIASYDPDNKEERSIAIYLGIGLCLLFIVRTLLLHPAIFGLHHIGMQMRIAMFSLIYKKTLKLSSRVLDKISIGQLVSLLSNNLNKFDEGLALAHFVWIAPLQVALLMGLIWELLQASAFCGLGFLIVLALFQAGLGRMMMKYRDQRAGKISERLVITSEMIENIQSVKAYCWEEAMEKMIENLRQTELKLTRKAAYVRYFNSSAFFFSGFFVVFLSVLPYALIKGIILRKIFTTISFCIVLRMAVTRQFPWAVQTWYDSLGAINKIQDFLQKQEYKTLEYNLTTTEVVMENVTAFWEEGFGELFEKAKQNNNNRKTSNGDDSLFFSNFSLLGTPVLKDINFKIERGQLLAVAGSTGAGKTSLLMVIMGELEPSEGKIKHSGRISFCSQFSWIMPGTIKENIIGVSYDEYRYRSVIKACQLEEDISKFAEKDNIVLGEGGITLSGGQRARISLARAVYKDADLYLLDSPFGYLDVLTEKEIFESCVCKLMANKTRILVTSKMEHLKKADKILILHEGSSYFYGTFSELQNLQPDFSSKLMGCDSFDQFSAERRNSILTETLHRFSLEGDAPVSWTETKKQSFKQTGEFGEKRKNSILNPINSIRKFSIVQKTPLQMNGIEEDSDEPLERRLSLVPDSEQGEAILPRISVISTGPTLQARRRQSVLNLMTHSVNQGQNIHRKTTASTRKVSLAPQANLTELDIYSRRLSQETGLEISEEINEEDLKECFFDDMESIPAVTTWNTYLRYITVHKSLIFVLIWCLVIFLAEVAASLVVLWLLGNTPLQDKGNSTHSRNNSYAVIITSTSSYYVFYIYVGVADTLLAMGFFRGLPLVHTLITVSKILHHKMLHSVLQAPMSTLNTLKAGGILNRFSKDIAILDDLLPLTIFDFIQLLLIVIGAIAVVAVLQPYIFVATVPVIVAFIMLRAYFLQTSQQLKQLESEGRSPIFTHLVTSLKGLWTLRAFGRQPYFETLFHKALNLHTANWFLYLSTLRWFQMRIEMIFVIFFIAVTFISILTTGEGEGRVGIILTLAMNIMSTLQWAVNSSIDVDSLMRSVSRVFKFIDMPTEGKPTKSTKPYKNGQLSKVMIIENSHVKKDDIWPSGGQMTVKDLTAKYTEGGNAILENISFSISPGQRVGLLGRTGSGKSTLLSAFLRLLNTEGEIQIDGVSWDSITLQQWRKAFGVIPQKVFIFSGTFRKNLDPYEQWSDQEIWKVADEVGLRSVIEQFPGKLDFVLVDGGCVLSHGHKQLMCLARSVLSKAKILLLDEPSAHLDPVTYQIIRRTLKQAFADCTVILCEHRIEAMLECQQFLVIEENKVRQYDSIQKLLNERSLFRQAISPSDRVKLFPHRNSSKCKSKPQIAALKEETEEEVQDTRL
# UniProt P13569, whole entry: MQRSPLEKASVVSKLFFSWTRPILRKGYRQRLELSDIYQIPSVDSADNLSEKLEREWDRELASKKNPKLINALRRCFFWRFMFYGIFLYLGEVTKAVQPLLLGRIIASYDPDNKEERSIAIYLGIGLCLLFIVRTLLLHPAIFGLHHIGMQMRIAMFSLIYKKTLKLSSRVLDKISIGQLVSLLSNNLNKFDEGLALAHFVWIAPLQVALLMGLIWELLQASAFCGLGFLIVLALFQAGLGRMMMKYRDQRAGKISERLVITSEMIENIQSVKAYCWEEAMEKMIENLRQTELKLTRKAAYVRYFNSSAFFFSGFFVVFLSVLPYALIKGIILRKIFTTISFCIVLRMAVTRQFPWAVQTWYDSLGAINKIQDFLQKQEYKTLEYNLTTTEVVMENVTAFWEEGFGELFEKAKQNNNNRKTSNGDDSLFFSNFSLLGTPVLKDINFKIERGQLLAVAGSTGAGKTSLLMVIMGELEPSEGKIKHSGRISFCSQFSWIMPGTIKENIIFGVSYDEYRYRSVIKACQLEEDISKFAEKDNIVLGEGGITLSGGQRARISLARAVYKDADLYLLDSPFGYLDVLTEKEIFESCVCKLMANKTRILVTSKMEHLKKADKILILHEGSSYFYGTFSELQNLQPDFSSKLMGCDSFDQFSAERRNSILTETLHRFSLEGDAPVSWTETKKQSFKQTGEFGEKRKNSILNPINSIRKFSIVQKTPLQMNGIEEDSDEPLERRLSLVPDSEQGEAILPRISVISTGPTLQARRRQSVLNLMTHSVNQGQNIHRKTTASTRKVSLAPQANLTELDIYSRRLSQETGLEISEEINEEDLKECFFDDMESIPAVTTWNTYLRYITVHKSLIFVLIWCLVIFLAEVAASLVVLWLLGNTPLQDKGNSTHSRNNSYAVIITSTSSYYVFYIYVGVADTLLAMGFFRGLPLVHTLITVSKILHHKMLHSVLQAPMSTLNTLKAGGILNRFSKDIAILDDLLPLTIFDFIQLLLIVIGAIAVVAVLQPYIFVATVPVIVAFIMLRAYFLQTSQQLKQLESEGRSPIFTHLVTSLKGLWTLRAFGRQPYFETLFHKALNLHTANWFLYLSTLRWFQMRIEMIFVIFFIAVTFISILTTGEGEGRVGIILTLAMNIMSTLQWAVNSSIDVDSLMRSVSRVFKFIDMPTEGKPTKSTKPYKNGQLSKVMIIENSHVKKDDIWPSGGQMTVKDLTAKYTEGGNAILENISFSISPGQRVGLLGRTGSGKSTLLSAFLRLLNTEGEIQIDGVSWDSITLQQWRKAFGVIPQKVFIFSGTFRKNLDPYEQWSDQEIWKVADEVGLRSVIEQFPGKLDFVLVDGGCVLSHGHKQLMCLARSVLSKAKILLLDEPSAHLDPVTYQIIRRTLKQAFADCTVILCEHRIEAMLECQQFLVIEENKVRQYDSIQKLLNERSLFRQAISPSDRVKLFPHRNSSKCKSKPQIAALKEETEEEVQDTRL
# For at least one compound, name, drawing or mass did not settle the structure.
# Key:
# [1] = system: wildtype CFTR-corrected CF15 monolayers; experiment: Short-circuit current across wildtype CFTR-corrected CF15 monolayers; assay type: cell-based, human; settings: forskolin 20 μM, serosal; amiloride 20 μM
# Procedure: (§1) Human airway cell culture. The human submucosal serous gland-like cell line Calu-3, the CF nasal epithelial cell line homozygous for ΔF508 CFTR (CF15) and human tracheal primary cultures (hTE) were cultured as described (Jefferson, D. M., Valentich, J. D., Marini, F. C., Grubman, S. A., Iannuzzi, M. C., Dorkin, H. L., Li, M., Klinger, K. W. & Welsh, M. J. (1990) Am. J. Physiol. 259, L496-L505. Sachs, L. A., Finkbeiner, W. E. & Widdicombe, J. H. (2003) In Vitro Cell Dev. Biol. Anim. 39, 56-62.). Wildtype CFTR-corrected CF15 cells were generated via adenovirus-mediated gene transfer. Growth media were nominally free of ascorbic acid (<10 μm, University Pathology Inc., Salt Lake City, Utah). For transepithelial measurements cells were grown on permeable filter inserts and used after 3 to 10 days.
# (§2) Short-circuit current measurement. Calu-3 or CF15 cells were grown as monolayers, mounted in Ussing chambers and short-circuit current (ISC) was recorded as described (Illek, B. & Fischer, H. (1998) Am. J. Physiol. 275, L902-L910). At 20-50 second intervals, transepithelial voltage was clamped from zero to 2 mV and the transepithelial resistance (Rte) was calculated. A serosa-to-mucosa-directed Cl gradient was applied. […]
# (§3) In this example, chloride currents stimulated by L-ascorbate or D-ascorbate were measured in CF15 versus. wildtype CFTR-corrected CF15 monolayers. […]
# G551D-CFTR = G551D-CFTR (Homo sapiens, UniProt P13569, G551D); experiment: Patch clamp of HeLa cells infected with G551D-CFTR-containing adenovirus; assay type: cell-based; design: expressed in transfected cells; host or cells: HeLa cells, adenoviral infection
# Description: Within another experiment, HeLa cells infected with the G551D-CFTR-containing adenovirus were investigated in the patch clamp mode. […] Current variance to mean current plot (FIG. 11C) were used to calculate the average open probability (Po shown on top of axis) of the population of channels carrying the total current (as described in Illek and Fischer, Am. J. Physiol. (Lung Cell. Mol. Physiol.):L902-910, 1998).
# ΔF508-CFTR [2] = target: T1, ΔF508-CFTR (Homo sapiens, UniProt P13569, DEL508-508); experiment: Whole cell patch clamp on JME airway epithelial cells homozygous for ΔF508-CFTR; assay type: cell-based; design: endogenous in cells; host or cells: JME human CF nasal/airway epithelial cell line, pre-treated with 4-phenylbutyrate
# Procedure: FIG. 6 presents a whole cell patch clamp recording on an airway epithelial cell homozygous for ΔF508-CFTR (cell type: JME cell, see Jeffersen et al., Am. J. Physiol. 259:L496-L505, 1990). Before the measurement, the cell was incubated for 2 days in 5 mM 4-phenylbutyrate to enhance ΔF508-CFTR expression in the plasma membrane (Rubenstein & Zeitlin, Ped. Pulm. Suppl. 12:234, 1995). Measurements were performed as described by Fischer et al., J. Physiol. Lond. 489:745-754, 1995. […] The holding potential was −60 mV.
# In one experiment, genistein was used in combination with 4-phenylbutyrate. Chloride current was measured in JME cells (human nasal epithelial cell line homozygous for the Δ508 mutation of CFTR; see Jefferson et al., Am. J. Physiol. 259:L496-505, 1990). The recording was performed at 0 mV holding potential with a 17:150 mM chloride gradient from bath to pipette.
# [3] = system: 31EG4 mammary epithelial monolayers; experiment: Transepithelial short-circuit current (Isc) across 31EG4 mammary epithelial monolayers; assay type: cell-based; settings: forskolin 20 μM, serosal, after genistein
# Procedure: FIG. 19 is a recording illustrating the stimulatory effect of […] on transepithelial short-circuit current (Isc) across 31EG4 mammary epithelial monolayers. […] Currents were recorded in symmetrical NaCl Ringers solution at 0 mV and pulses were obtained at 2 mV.
# Na currents were blocked by mucosal addition of amiloride ([…]). […] Currents were recorded in symmetrical NaCl Ringers solution at 0 mV and pulses were obtained at 2 mV.
# Calu-3 monolayers = experiment: Transepithelial short-circuit current (Isc) across unstimulated Calu-3 monolayers; assay type: cell-based, human; settings: forskolin 20 μM serosal, after reservatrol or L-ascorbic acid
# Procedure: Currents were recorded with a serosal-to-mucosal chloride gradient at 0 mV and pulses were obtained at 2 mV.
# Ascorbic acid (100 μM) was added as indicated. For comparison, ascorbic acid-stimulated chloride current was subsequently stimulated by the cAMP elevating agonist forskolin (20 μM, serosal). The CFTR activator genistein (20 mM) was then added to the mucosal perfusion as indicated. […] Currents were recorded with a serosal-to-mucosal chloride gradient at 0 mV and pulses were obtained at 2 mV.
# 100 μM ascorbic acid and forskolin (fsk, 20 μM, serosal) were added as indicated. The CFTR activator kaempferol (20 μM) was subsequently added, as indicated. […] Currents were recorded with a serosal-to-mucosal chloride gradient at 0 mV and pulses were obtained at 2 mV.
# This experiment was performed using unstimulated tissue.
# Kinetic analysis is depicted on the right panel and estimated half maximal stimulatory dose was 11.7 μM. […]
# For comparison, ascorbic acid-stimulated chloride currents were stimulated by the cAMP elevating agonist forskolin (20 μM, serosal).
# Stimulated C1 currents returned to baseline after 5-15 min.
# [4] = system: CF15 monolayers homozygous for ΔF508 CFTR; experiment: Short-circuit current across CF15 monolayers homozygous for ΔF508 CFTR; assay type: cell-based, human; settings: forskolin 20 μM, serosal; amiloride 20 μM
# Procedure: as §1, §2, §3
# ΔF508-CFTR [5] = target: T1, ΔF508-CFTR; experiment: Cell-attached single channel patch clamp, 3T3 cell expressing ΔF508-CFTR; assay type: cell-based; settings: forskolin 10 μM; genistein 50 μM or apigenin 50 μM; holding potential 75 mV
# [6] = system: intracellular cAMP levels; experiment: Cyclic AMP measurements in Calu-3 cells (competitive immunoassay); assay type: cell-based, human; settings: forskolin 10 nM or greater; 15 min
# Procedure: Cyclic AMP measurements. […] Cellular cAMP levels were measured in non-acetylated samples using a competitive immunoassay for cAMP (R&D systems, Minneapolis, Minn.). The regulatory role of vitamin C on Cl ion channel activity was studied in Calu-3 airway cells which express large amounts of native CFTR as their major Cl conductance ([…]., Widdicombe, J. H. & Wine, J. J. (1994) Am. J. Physiol. 266, […]-[…]). […] Details of the single channel recording are illustrated in FIG. 20C. […] At negative potentials no channel openings were resolved indicating Cl-over-gluconate selectivity. Cyclic AMP is the major intracellular messenger for the activation of CFTR. We tested the possibility that L-ascorbic acid increased intracellular cAMP levels [cAMP], by either turning on cAMP production or preventing cAMP degradation. FIG. 20E compares whole cell cAMP levels of Calu-3 cells challenged with either increasing concentrations of L-ascorbic acid or the cAMP agonist forskolin.
# CFTR Cl channels = target: T2, CFTR Cl channels (Homo sapiens, UniProt P13569); experiment: Outside-out single channel patch clamp on Calu-3 cells; assay type: cell-based; settings: 10 μM forskolin in the continued presence of L-ascorbic acid
# T2 construct: Calu-3 airway cells which express large amounts of native CFTR; endogenous in cells; host or cells: Calu-3 human airway epithelial cells
# Procedure: Patch clamp analysis. Single channel patch clamp studies were performed on Calu-3 cells at 37° C. The outside-out recording mode was established via the whole cell mode as described (Fischer, H. (2001) in Methods in Molecular Medicine, […]. & Walker, J. M. (Humana Press Inc, Totowa), pp. 49-66.). The bath solution contained (in mM) 145 NaCl, 1.7 CaCl2, 1 MgCl2, 10 Hepes, 10 glucose, pH=7.4. The pipette solution contained (in mM): 15 N-methyl-D-glucamine (NMG) Cl, 10 EGTA, 1 MgCl2, 10 Hepes, 10 glucose, 120 NMG-gluconate, 5 MgATP, 0.1 LiGTP, pH=7.4. […] The regulatory role of vitamin C on Cl ion channel activity was studied in Calu-3 airway cells which express large amounts of native CFTR as their major Cl conductance ([…]., Widdicombe, J. H. & Wine, J. J. (1994) Am. J. Physiol. 266, […]-[…]). […] Details of the single channel recording are illustrated in FIG. 20C. […] At negative potentials no channel openings were resolved indicating Cl-over-gluconate selectivity. Cyclic AMP is the major intracellular messenger for the activation of CFTR. We tested the possibility that L-ascorbic acid increased intracellular cAMP levels [cAMP], by either turning on cAMP production or preventing cAMP degradation. FIG. 20E compares whole cell cAMP levels of Calu-3 cells challenged with either increasing concentrations of L-ascorbic acid or the cAMP agonist forskolin.
# wild type CFTR = target: T3, wild type CFTR (Homo sapiens, UniProt P13569); experiment: Patch clamp of HeLa cells expressing wild type CFTR; assay type: cell-based; settings: after forskolin stimulation; n=3
# T3 construct: expressed in transfected cells; host or cells: HeLa cells
compound,measurement,setting,value
"C=C[C@@]1(C)CC(=O)[C@]2(O)[C@@]3(C)[C@@H](O)CCC(C)(C)[C@@H]3[C@H](O)[C@H](OC(C)=O)[C@@]2(C)O1 [forskolin, reference compound]",Cl secretion in CFTR-corrected (+wtCFTR) epithelia,[1],stimulated Cl secretion
same,average open probability Po,G551D-CFTR; after forskolin stimulation,0.05±0.02
same,maximal open probability Po in this recording,G551D-CFTR; during forskolin stimulation,0.04
same,whole cell chloride current (in words),"G551D-CFTR; forskolin 10 μM, then additional genistein 30 μM",only a very small current
same,forskolin-stimulated conductance (average),"G551D-CFTR; forskolin 10 μM, n=4",9.5±5 pS/pF
same,chloride current stimulated by (on average),"ΔF508-CFTR [2]; after 5 mM 4-PB for two days, forskolin 10 μM, n=6",30.3±19.4 pS/pF
same,chloride current in the whole cell mode,"ΔF508-CFTR [2]; cell incubated 2 days in 5 mM 4-phenylbutyrate, quercetin 30 μM, then forskolin (10 μM), holding potential −60 mV",further stimulated
same,"chloride current, untreated cell","ΔF508-CFTR [2]; no 4-phenylbutyrate, forskolin 10 μM, genistein 30 μM, 0 mV holding potential",Neither forskolin (10 μM nor genistein (30 μM activated current
same,chloride currents on addition of forskolin,[3],further stimulated
same,chloride currents on subsequent serosal addition of forskolin,Calu-3 monolayers,further stimulated
same,Cl secretion in uncorrected CF epithelia,[4],not in uncorrected CF epithelia
same,ΔF508-CFTR channel activation (channel openings),ΔF508-CFTR [5],did not activate
same,intracellular cAMP level,[6],"increased [cAMP], dose-dependently"
same,average Po increased to,CFTR Cl channels,0.54±0.12
same,open probability Po,wild type CFTR,0.36±0.05
